Taken from: PubChem BioAssay AID1508587 (Peter MacCallum Cancer Centre, 2020)
Shown is one part, drawn at random, of about 1,600 reagents. In the full data, 623 (39%) were called active. 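Calls are for each duplex; lactate ratios contain extreme outliers.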 Unmarked entries are inactive. The numbers tell different reagents against one gene apart. Further read-outs or replicates are left out here.

Aim: 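Follow-up of vemurafenib sensitisers scored by lactate made per cell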 (follow-up of hits)
Cell system: human WM266.4 melanoma cells with a BRAF V600 mutation
Knock-down reagent: single siRNA against human genes, 25 nM
Timing: 96 h
Challenge: vemurafenib 300 nM (about IC25), given 48 h after transfection for 48 h
Measured: 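Medium lactate read by absorbance over DAPI-counted nuclei; ratio with versus without vemurafenib, set against non-targeting siRNA, averaged over 2 replicates; cell number also recorded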
Scale: lactate per cell, drug vs no drug: higher = less drug-induced drop in lactate per cell
Hit rule: 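a duplex is active when its lactate-per-cell ratio with versus without drug falls under 0.55, i.e. 2 SD below non-targeting; a gene is confirmed if 2 or more of 4 duplexes pass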

With SEL1L3 (SEL1L family member 3) #1, what was measured?
lactate per cell, drug vs no drug: 0.6

For SEL1L3 (SEL1L family member 3) #2, what was measured?
lactate per cell, drug vs no drug: 0.48 (active)

How did the screen score SEL1L3 (SEL1L family member 3) #3?
lactate per cell, drug vs no drug: 0.74

What did the screen give for SEL1L3 (SEL1L family member 3) #4?
lactate per cell, drug vs no drug: 0.32 (active)

With OR5C1 (olfactory receptor family 5 subfamily C member 1) #1, what was measured?
lactate per cell, drug vs no drug: 0.52 (active)

What is on record for OR5C1 (olfactory receptor family 5 subfamily C member 1) #2?
lactate per cell, drug vs no drug: 0.71

For OR5C1 (olfactory receptor family 5 subfamily C member 1) #3, how do the results read?
lactate per cell, drug vs no drug: 0.58

For OR5C1 (olfactory receptor family 5 subfamily C member 1) #4, what was measured?
lactate per cell, drug vs no drug: 0.54 (active)

With SMG7 (SMG7 nonsense mediated mRNA decay factor) #1, what was measured?
lactate per cell, drug vs no drug: 0.48 (active)

With SMG7 (SMG7 nonsense mediated mRNA decay factor) #2, what was measured?
lactate per cell, drug vs no drug: 0.43 (active)

How did the screen score SMG7 (SMG7 nonsense mediated mRNA decay factor) #3?
lactate per cell, drug vs no drug: 0.51 (active)

For SMG7 (SMG7 nonsense mediated mRNA decay factor) #4, what was measured?
lactate per cell, drug vs no drug: 0.4 (active)

For NEUROD2 (neuronal differentiation 2) #1, what was measured?
lactate per cell, drug vs no drug: 0.92

How did the screen score NEUROD2 (neuronal differentiation 2) #2?
lactate per cell, drug vs no drug: 0.64

What is on record for NEUROD2 (neuronal differentiation 2) #3?
lactate per cell, drug vs no drug: 0.37 (active)

With NEUROD2 (neuronal differentiation 2) #4, how do the results read?
lactate per cell, drug vs no drug: 0.78

With EDN3 (endothelin 3) #1, what does the deposit list?
lactate per cell, drug vs no drug: 0.38 (active)

Which result is listed for EDN3 (endothelin 3) #2?
lactate per cell, drug vs no drug: 1.02

How did the screen score EDN3 (endothelin 3) #3?
lactate per cell, drug vs no drug: 0.48 (active)

How did the screen score EDN3 (endothelin 3) #4?
lactate per cell, drug vs no drug: 0.69

With RCOR3 (REST corepressor 3) #1, how do the results read?
lactate per cell, drug vs no drug: 0.42 (active)

What is on record for RCOR3 (REST corepressor 3) #2?
lactate per cell, drug vs no drug: 0.47 (active)

For RCOR3 (REST corepressor 3) #3, how do the results read?
lactate per cell, drug vs no drug: 0.6

How did the screen score RCOR3 (REST corepressor 3) #4?
lactate per cell, drug vs no drug: 0.82

How did the screen score SHMT1 (serine hydroxymethyltransferase 1) #1?
lactate per cell, drug vs no drug: 1.04

Which result is listed for SHMT1 (serine hydroxymethyltransferase 1) #2?
lactate per cell, drug vs no drug: 0.64

With SHMT1 (serine hydroxymethyltransferase 1) #3, how do the results read?
lactate per cell, drug vs no drug: 0.66

For SHMT1 (serine hydroxymethyltransferase 1) #4, what does the deposit list?
lactate per cell, drug vs no drug: 0.7

What did the screen give for RPS6KB2 (ribosomal protein S6 kinase B2) #1?
lactate per cell, drug vs no drug: 0.51 (active)

How did the screen score RPS6KB2 (ribosomal protein S6 kinase B2) #2?
lactate per cell, drug vs no drug: 0.64

What is on record for RPS6KB2 (ribosomal protein S6 kinase B2) #3?
lactate per cell, drug vs no drug: 0.42 (active)

With RPS6KB2 (ribosomal protein S6 kinase B2) #4, what was measured?
lactate per cell, drug vs no drug: 0.75

For MRPL57 (mitochondrial ribosomal protein L57) #1, what was measured?
lactate per cell, drug vs no drug: 0.74

What did the screen give for MRPL57 (mitochondrial ribosomal protein L57) #2?
lactate per cell, drug vs no drug: 0.29 (active)

For MRPL57 (mitochondrial ribosomal protein L57) #3, what does the deposit list?
lactate per cell, drug vs no drug: 1.39

What is on record for MRPL57 (mitochondrial ribosomal protein L57) #4?
lactate per cell, drug vs no drug: 0.45 (active)

No new results follow: 5 of the entries above.
SMG7 (SMG7 nonsense mediated mRNA decay factor) #2: lactate per cell, drug vs no drug = 0.43 (active)
SMG7 (SMG7 nonsense mediated mRNA decay factor) #3: lactate per cell, drug vs no drug = 0.51 (active)
SMG7 (SMG7 nonsense mediated mRNA decay factor) #4: lactate per cell, drug vs no drug = 0.4 (active)
NEUROD2 (neuronal differentiation 2) #1: lactate per cell, drug vs no drug = 0.92
NEUROD2 (neuronal differentiation 2) #2: lactate per cell, drug vs no drug = 0.64
